The whole screen tested about 6,900 compounds, of which fewer than 10 were called active. Calls follow the shape of the dose curve; as a rule, active = well fitted curve in the direction sought with a large enough effect; inconclusive = small, poorly fitted or top-dose-only effect, or another doubt; inactive = no such curve, though single readings can be large or run the other way. The list shows a part of the results.
Molecular target: Metallo-beta-lactamase type 2 (Klebsiella pneumoniae) (UniProt C7C422)
Experiment: qHTS to identify inhibitors of the New Delhi Metallo-beta-lactamase (NDM): primary screen against the NCATS Gemini Collection; also: % of control where 0% means no effect
Conditions: NDM-1 enzyme, meropenem hydrolysis, absorbance 300 nm; at 38.4 µM (top of the series) unless noted
Summary of the method: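 NDM-1 at 2 nM final in 50 mM HEPES pH 7.0, 1 uM ZnSO4, 0.01% Tween20, preincubated >30 min with compound. Meropenem 50 uM final added; absorbance at 300 nm after 30 min.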

Chains of the proteins cited; added tags and fusions are not shown. Lines headed by an entry give the natural chain unless they say otherwise; changes in a name come on top.
UniProt C7C422: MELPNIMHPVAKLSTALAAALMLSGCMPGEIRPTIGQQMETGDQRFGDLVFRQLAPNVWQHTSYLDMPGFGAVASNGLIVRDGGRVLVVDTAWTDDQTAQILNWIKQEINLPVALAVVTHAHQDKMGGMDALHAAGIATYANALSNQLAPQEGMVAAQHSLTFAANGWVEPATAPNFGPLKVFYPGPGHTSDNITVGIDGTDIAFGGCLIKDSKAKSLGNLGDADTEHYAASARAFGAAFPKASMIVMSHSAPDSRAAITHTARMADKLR

Activity % (negative = inhibition), inactive:
O=C(O)c1ccc(-c2nnc3ccc(NC(=O)C4CCC4)cn23)cc1 21.8%, CC(C)(C)C1CN(Cc2cccs2)C(=O)c2cccnc2O1 (stereo unspecified) 0.186% [at 16.1 µM], COc1ccc(S(=O)(=O)N2C[C@@H](F)C[C@H]2C(=O)N2CCOCC2)cc1 3.6%, COCC1CN(C(C)=O)CC12CCN(S(=O)(=O)c1ccc(OC)cc1)CC2 (stereo unspecified) 2.14%, CC(=O)NC1CCN(C(=O)Cc2c(C)[nH]c3c(C)ccc(C)c23)C1 (stereo unspecified) -5.09%, O=C(CC1=CCCCC1)NC1CCc2n[nH]c(=O)n2CC1 (stereo unspecified) 11.9%, O=C(NC1CCCCC1)c1cc(-c2ccc(F)cc2)c2nncn2n1 14.1%, CCC(CC)CN1CC2(CCN(C(=O)CCc3nncn3C)CC2)OC1=O -0.564%, CN(Cc1ccc(-c2ccccc2)cc1)C(=O)C1CC1 -1.07% [at 57.5 µM], C[C@H](C(=O)N1Cc2ccccc2CC2(CCN(Cc3ccncc3)C2)C1)c1ccccc1 (stereo partly specified) 8.07%, Cc1ccc(-c2noc([C@@H]3CCCN3C(=O)CCCc3ccccc3)n2)cc1 21.9%, CN1C(=O)N(C)C2(CCN(CCc3ccccc3)C2)C1=O (stereo unspecified) 0.235%, O=c1n(CC2CC2)nc2n1CCN(C1CCCC1)CC2 -1.41%, CC1(C(=O)N2CCC(C3CCN(S(C)(=O)=O)CC3)C2)CCOCC1 (stereo unspecified) 0.103%, O=C(N[C@@H]1CN(C(=O)Cn2c(=O)oc3ccccc32)CC[C@@H]1CO)c1ccccc1 4.87%, Cc1ccc2c(c1)c(C(=O)N[C@H](c1cnn(C)c1)C1CC(O)C1)nn2C (stereo partly specified) 28%, CS(=O)(=O)N[C@H]1CCN2C(=O)c3cc(-c4cccc(C(F)(F)F)c4)ccc3NC(=O)[C@@H]2C1 13.8%, COC(=O)[C@@H]1CN(C(=O)Nc2ccccc2)CCN1C(C)=O 1.62% [at 57.5 µM], COc1ccc(OC2CN(CC3CC3)C2)cc1 -0.736% [at 77.1 µM], CC(C)OCCCNC(=O)c1cc(C2CC2)nc2onc(C3CCNC3)c12 (stereo unspecified) 4.11%, O=C(O)CO[C@@H]1COCC[C@H]1NC(=O)c1ccccc1-c1ncn[nH]1 6.48%, OCc1ccc(CN2C[C@H](O)C[C@H]2c2nc(-c3ccc(F)cc3)no2)o1 7.52% [at 57.5 µM], CCN1CCN(C(=O)C23CCC=C2N(C2CCCC2)C(=O)CC3)CC1 (stereo unspecified) 11.7%, Cc1ccc([S+](=O)([O-])N2CCN(c3nc4ncccc4o3)CC2)cc1 -0.878%, O=C(CCCn1cncn1)NC1CC(c2cc(N3CCOCC3)ncn2)C1 (stereo unspecified) 1.62%, COc1ccc(NC(=O)Cn2c(-c3ccc(Cl)cc3)nc(C)cc2=O)cc1OC 0.0347%, COC1CN(c2cccc(F)c2)C12CCN(C(=O)NCC(C)C)CC2 (stereo unspecified) 2.05%, CCn1cc(C(=O)N2C[C@@H](COC)[C@H](C(=O)NC)C2)cn1 -3.54%, Cc1noc(C)c1C(=O)N1CCN(c2ccc(C=O)cc2)C(=O)C1 2.02%, CN1C(=O)[C@H]2CN(Cc3cn[nH]c3-c3ccc(F)cc3)C[C@H]2C1=O -1.45%, CN(Cc1cnn(-c2ccccc2)c1)Cc1cc2ccccc2[nH]c1=O -7.55%, CCCc1nc(C(=O)N2CCC3(CCCNC3)C2)cs1 (stereo unspecified) 13.1%, CC(C)NC(=O)NCC1Cn2cccc2C(=O)N1Cc1ccccc1 (stereo unspecified) 6.71%, COCCN1CCCCCC(O)c2cc(C(=O)N(C)CCCc3c(C)nn(C)c3C)ccc21 (stereo unspecified) -2.8%, CCC(=O)N(C1CCOCC1)C1CCN(S(=O)(=O)c2ccc(Cl)c(C)c2)CC1 -1.77%, O=C(CCC1CCCC1)NCc1nnc2cc(-c3nc(C4CC4)no3)ccn12 -1.8%, O=c1c2c(nc3cc[nH]n13)CN(S(=O)(=O)c1cccc(C(F)(F)F)c1)CC2 4.85%, O=c1cc(N2CCOCC2)oc2c(Nc3ccccn3)nccc12 10.6% [at 57.5 µM], O=C1CCN(Cc2ccncc2)CCCC(C(=O)N2CCCC2)CCN1 (stereo unspecified) 11.5%, O=C(c1ccccn1)N1CCC2(CNc3ccccc3[S+](=O)([O-])N2)C1 (stereo unspecified) 24.1%, COCc1cn2c(=O)n(C)cc(-c3ccnc(OC)c3)c2n1 13.5% [at 57.5 µM], COC[C@@H]1CN(C(=O)c2cc(OC)cc(OC)c2)C[C@H]1c1ccncc1 -1.24%, O=C(C1CCCCC1)N1CCC(n2cc(-c3nc(-c4ccccc4)no3)nn2)CC1 14.9%, CC1(C(=O)Nc2ccccc2)CCc2cnc(N3CCOCC3)nc21 (stereo unspecified) 2.42% [at 57.5 µM], CCC#CCN1CCc2ccccc2N(CC(O)COCc2ccco2)CCC1=O (stereo unspecified) 32.1% [at 16.1 µM], CCNC(=O)CC1COCCN1C(=O)c1csc(-c2cccs2)n1 (stereo unspecified) 19.4%, CN1C[C@@H](NC(=O)c2ccc(C#N)cc2)C[C@H]1c1nc(Cc2ccccc2)no1 1.33% [at 57.5 µM], COCCc1noc(-c2ccc(Cn3nc(C)cc3C)cc2)n1 11.9%, COCc1ccc(C(=O)N2CCN(CCO)CC(O)C2)cc1 (stereo unspecified) 3.88%, CCOc1ccc2ccccc2c1C(C(=O)O)N1CCN(CC2CC2)CC1 (stereo unspecified) 9.88%, CN1CCN(C(=O)CC[C@@H]2CNC(=O)[C@@H]3C[C@H](NC(=O)c4cccc(F)c4)CN23)CC1 -0.0255% [at 57.5 µM], O=C(c1ccc(Br)cc1)N1CCN(c2cc(-c3ccccc3)[nH]n2)CC1 2.1%, Cc1csc(NC(=O)c2nc3c(o2)CCN(Cc2ccccc2F)CC3)n1 19.1% [at 57.5 µM], COC1CCN(C(=O)Nc2ccccc2)CC(=O)N(C)c2ccccc21 (stereo unspecified) -1.13%, CC(C)N1CCN(C(=O)c2csc(N3CCN(c4cccc(Cl)c4)CC3)n2)CC1 -1.73%, O=[S+]1([O-])[C@@H](c2ccccc2)[C@H](COCc2ccccc2)CN1C1CC1 33.1%, Cc1noc(C)c1CC(=O)N1CC(=O)N(C2CCCCC2)CC(OCc2ccccc2)C1 (stereo unspecified) 4.51%, Cn1c(Cn2ccnc2)nnc1C1CC(NC(=O)c2ccc(CO)o2)C1 (stereo unspecified) 0.138%, CCn1cc(S(=O)(=O)NCC2Cn3cccc3CN2Cc2ccccc2)cn1 (stereo unspecified) 11.1%, Cn1cc(-c2ccsc2)c2nc(CN3CCNC(=O)C3)cn2c1=O 12.2% [at 57.5 µM], CN1C[C@H](C(=O)Nc2ccncn2)C[C@H]1c1cccc(C(F)(F)F)c1 11% [at 57.5 µM], Cc1cncc(C(=O)N2CC(CO)C3(CCNCC3)C2)c1 (stereo unspecified) 14.2%, O=C(c1ccncc1)N1CCC2(CC1)CN(c1ncccn1)CC2CO (stereo unspecified) 1.06%, OC[C@@H]1CNC[C@H]1C1CCN(Cc2ccncc2F)CC1 32.4%, O=C(CCCc1cccs1)N1CCCC(O)(CN2CCCC2)C1 (stereo unspecified) 3.9%, Cc1ccc(-c2cc(-c3cccnc3)nc3c(C)noc23)c(C)c1 15.2% [at 57.5 µM], CCc1noc([C@@H]2CC(F)(F)CN2C(=O)c2ccncc2F)n1 1.07%, CC(=O)NCCC(=O)N1CCCCC1C(=O)Nc1ccc(-n2nc(C)cc2C)cc1 (stereo unspecified) 2.68%, Cc1nonc1Cc1nc(C2CCOCC2)nn1CC1COCCO1 (stereo unspecified) -2.77%, C[S+](=O)([O-])N1Cc2ccccc2CC2(CCN(CC3CCCCC3)CC2)C1 -0.243%, c1cncc(CN2CCOC[C@H]2c2ncc(-c3cccnc3)[nH]2)c1 7.77% [at 57.5 µM], Cc1cc(N2CCC(NCc3cc(C)nn3C)CC2)nc(-c2ccccc2)n1 7.57%, CC(C)C(=O)N[C@H]1[C@H](O)[C@H](O)C[C@@H]1c1ccc(C(F)(F)F)nc1 8.19% [at 57.5 µM], COCC(=O)N(C[C@H]1O[C@@H](CC(=O)NC2CC2)[C@H](O)[C@@H]1O)C[C@H]1O[C@@H](CC(=O)NC2CC2)[C@H](O)[C@@H]1O 0.867%, CCN1CCCC2(CCN(C(=O)CCc3n[nH]c(C)c3C)C2)C1=O (stereo unspecified) -2.33%, COc1ccc(NC(=O)CCc2ccnc(N3CCCC3)c2)c(OC)c1 38.1%, O=C(NC[C@H]1Cn2ccnc2CO1)C1CCCC1 0.0357% [at 77.1 µM], O=C([C@@H]1C[C@@H]2C=C[C@H]1C2)N1CCc2c(nc(-c3cccnc3)[nH]c2=O)C1 3.7%, Cc1noc(C)c1-c1nccc2c(=O)cc(-c3ccccn3)oc12 51.3% [at 57.5 µM], COc1ccc(S(N)(=O)=O)cc1C(=O)N1CCC2(CN(C)C(=O)O2)C1 (stereo unspecified) 9.66%, O=C(C1CCCNC1)N1CCCn2cc(-c3ccccc3F)nc21 (stereo unspecified) 6.66%, CCNC(=O)N[C@H]1[C@H](O)[C@H](O)C[C@@H]1c1cncnc1 4.61% [at 77.1 µM], CCCOc1nccnc1NC1CCN(C(=O)c2cccnc2)CC1 4.4%, CC(C)c1nc(N2CCOCC2)ncc1C(=O)O 0.227%, N#Cc1ccc(S(=O)(=O)N2CCc3n[nH]c(=O)n3CC2)cc1 43.8%, CS(=O)(=O)N1CC(F)(F)C[C@H]1c1nc(C2CC2)no1 8.43%
